Literature values, collected in patent US20210330725A1, “GARCINIA MANGOSTANA EXTRACT FOR PROMOTING HAIR GROWTH” (PIERRE FABRE DERMO-COSMETIQUE, priority 2018, published 2021).
At least one structure is not confirmed: it was looked up by name or label, or the drawing left a doubt.

Test system: hair follicles
Conditions: mice

## N#CC[C@H](C1CCCC1)n1cc(-c2ncnc3[nH]ccc23)cn1 [Ruxolitinib, ruxolitinib]
  effect on hair cycle of topical treatment in telogen phase: rapid re-entry at the beginning of anagen phase
